Source: PMC6344858

Columns and labels:
PfoI WT [1] = target: T1, PfoI WT (UniProt A0A452CST9); test: gel filtration; conditions: 5 mM Ca2+, 13.8 uM dimer, dimer:DNA 1:1.2; recombinant protein
PfoI F99A = PfoI F99A (UniProt A0A452CST9); test: EMSA; conditions: 5 mM Ca2+, nonspecific-mobility complex; EMSA: 40 mM Tris-acetate pH 8.3, 5 mM Ca acetate, 0.1 mg/ml BSA, 10% glycerol, room temperature, 15 min; 0.2 nM DNA, 0.05-1000 nM dimer; recombinant protein; label: 5'-33P
PfoI R100A = PfoI R100A (UniProt A0A452CST9); test: EMSA; conditions: 5 mM Ca2+, nonspecific-mobility complex; EMSA: 40 mM Tris-acetate pH 8.3, 5 mM Ca acetate, 0.1 mg/ml BSA, 10% glycerol, room temperature, 15 min; 0.2 nM DNA, 0.05-1000 nM dimer; recombinant protein; label: 5'-33P
PfoI WT [2] = target: T1, PfoI WT; test: EMSA; conditions: 5 mM Ca2+, EMSA: 40 mM Tris-acetate pH 8.3, 5 mM Ca acetate, 0.1 mg/ml BSA, 10% glycerol, room temperature, 15 min, 0.2 nM DNA, 0.05-1000 nM dimer, recombinant protein, label: 5'-33P
PfoI E167A = PfoI E167A (UniProt A0A452CST9); test: EMSA; conditions: 5 mM Ca2+, EMSA: 40 mM Tris-acetate pH 8.3, 5 mM Ca acetate, 0.1 mg/ml BSA, 10% glycerol, room temperature, 15 min, 0.2 nM DNA, 0.05-1000 nM dimer, recombinant protein, label: 5'-33P
PfoI F99A-R100A = PfoI F99A-R100A (UniProt A0A452CST9); test: EMSA; conditions: 5 mM Ca2+, nonspecific-mobility complex; EMSA: 40 mM Tris-acetate pH 8.3, 5 mM Ca acetate, 0.1 mg/ml BSA, 10% glycerol, room temperature, 15 min; 0.2 nM DNA, 0.05-1000 nM dimer; recombinant protein; label: 5'-33P
PfoI D169A = PfoI D169A (UniProt A0A452CST9); test: EMSA; conditions: 5 mM Ca2+, EMSA: 40 mM Tris-acetate pH 8.3, 5 mM Ca acetate, 0.1 mg/ml BSA, 10% glycerol, room temperature, 15 min, 0.2 nM DNA, 0.05-1000 nM dimer, recombinant protein, label: 5'-33P
PfoI E113A = PfoI E113A (UniProt A0A452CST9); test: EMSA; conditions: 5 mM Ca2+, EMSA: 40 mM Tris-acetate pH 8.3, 5 mM Ca acetate, 0.1 mg/ml BSA, 10% glycerol, room temperature, 15 min, 0.2 nM DNA, 0.05-1000 nM dimer, recombinant protein, label: 5'-33P

| Sequence | binding result (PfoI WT [1]) | Kd (PfoI F99A) | Kd (PfoI R100A) | Kd (PfoI WT [2]; fast-mobility specific complex) | Kd (PfoI E167A; specific-mobility complex) | Kd (PfoI F99A-R100A) | Kd (PfoI D169A; specific-mobility complex) | Kd (PfoI E113A; specific-mobility complex) | Kd (PfoI WT [2]; nonspecific-mobility complex) | binding result (PfoI E167A; nonspecific-mobility complex) | binding result (PfoI D169A; text and table say no complex, but the table also prints Kd 100 nM) | Kd (PfoI E113A; no complex) |
| --- | --- | --- | --- | --- | --- | --- | --- | --- | --- | --- | --- | --- |
| TAGCTCCAGGACGA / TTCGTCCTGGAGCT [SP14-GF] | binds |  |  |  |  |  |  |  |  |  |  |  |
| CGCACGACTTCCTGGAAGAGCACGC / GTTGCGTGCTCTTCCAGGAAGTCGTGCG [SP25] |  | 0.1 µM | 0.01 µM | 0.001 µM | 0.01 µM | 0.1 µM | 0.1 µM | 0.1 µM |  |  |  |  |
| CGCACGACTTGTCACAAGAGCACGC / GTTGCGTGCTCTTGTGACAAGTCGTGCG [NSP25] |  | 0.1 µM | 0.01 µM |  |  | 0.1 µM |  |  | 0.1 µM | binds | no binding | > 1 µM |

Construct, isoform or probe ends are uncertain for at least one entry. For part of these data: A negative result means that nothing was seen under these conditions. For part of these data: At least one verdict rests on a figure or table, not on a statement of the authors.
